Source: publication PMC9157728, “Albumin Binder–Conjugated Fibroblast Activation Protein Inhibitor Radiopharmaceuticals for Cancer Therapy” (Journal of Nuclear Medicine, 2022)

System: pancreatic cancer PDX tumors
Assay: Static PET imaging in pancreatic cancer PDX-bearing mice
Assay type: in vivo
Experimental: All animal care and experimental procedures were performed by following the animal protocols (CCME-LiuZB-2) approved by the ethics committee of Peking University. The mice were from the Beijing Vital River Laboratory Animal Technology Co., Ltd. For cell-line–derived xenograft models, 5 × 10^6 HT-1080-FAP or HT-1080 cells were subcutaneously inoculated into the right shoulder of 6-wk-old female nu/nu-mice. To establish the patient-derived xenograft (PDX) model, tumor specimens were obtained from patients who underwent presurgical ^68Ga-FAPI-04 PET/CT imaging to confirm that the tumor was FAP-positive. After surgical resection, the tumor specimens were immediately placed in ready-to-use fresh tissue preservation solution (TM2701-100) and transported under refrigerated conditions within 2 h. The research protocol was approved by the Institutional Ethics Committee of Peking Union Medical College Hospital (JS-2628). Six-week-old female nonobese diabetic/severe combined immunodeficiency (NOD/SCID) mice were used to establish the PDX models. […] Engraftment efficiency was determined by ^68Ga-FAPI-04 PET/CT imaging (Supplemental Fig. 21A). […]

SMILES | tumor visibility on PET at 2 h after injection
N#C[C@@H]1CC(F)(F)CN1C(=O)CNC(=O)c1ccnc2ccc(OCCCN3CCN(C(=O)[C@H](CCCCNC(=O)CN4CCN(CC(=O)[O-])CCN(CC(=O)[O-])CCN(CC(=O)[O-])CC4)NC(=O)CCCC(=O)NC(CCCCNC(=O)CCCc4ccc(I)cc4)C(=O)O)CC3)cc12.[86Y+3] (some centres unmarked) [^86Y-TEFAPI-06] | completely visible
Cc1cc(-c2ccc(NC(=O)CCCC(=O)N[C@@H](CCCCNC(=O)CN3CCN(CC(=O)[O-])CCN(CC(=O)[O-])CCN(CC(=O)[O-])CC3)C(=O)N3CCN(CCCOc4ccc5nccc(C(=O)NCC(=O)N6CC(F)(F)C[C@H]6C#N)c5c4)CC3)c(C)c2)ccc1N=Nc1ccc2c(S(=O)(=O)O)cc(S(=O)(=O)O)c(N)c2c1O.[86Y+3] [^86Y-TEFAPI-07] | completely visible
